At least one read-out could not be matched to a standard name with certainty.
Assay: DHE and HMC pharmacokinetics, oral, mice
Format: in vivo, female BALB/c mice
Conditions: oral 50 mg/kg, total
Procedure: HMC and DHE were prepared as homogenous suspensions in 1% CMC (m:v, water). Both formulations were delivered orally by gavage to female BALB/c mice at a dosage of 50 mg/kg. Three animals were allocated to each timepoint (15 min, 30 min, 1 hr, 4 hr and 24 hr). At each respective timepoint, animals were euthanased by cervical dislocation and blood collected. Free HMC was analysed by mass spectroscopy.

## COc1ccc(C2c3ccc(O)cc3OCC2c2ccc(O)cc2)cc1 (stereo not shown) [Compound 1, 3-(4-hydroxyphenyl)-4-(4-methoxyphenyl)chroman-7-ol]
  time at which Cmax achieved: 1 h

Reference: patent publication US8163795B2, “Chroman derivatives, medicaments and use in therapy” (Marshall Edwards, Inc., priority 2004, dated 2012)
